Measured values taken from PMC6394298.
Results are given in words; binding and its absence hold for the method and conditions named. Binding seen in cells or lysates may run through a third protein. Some entries that bind do so weakly or less than the wild type. One block for each binder: values may come before it.

Chains of the proteins cited; added tags and fusions are not shown. Lines headed by an entry give the natural chain unless they say otherwise; changes in a name come on top. A line that says so, or that is headed by a name, gives the form on record, which may keep a tag or linker.
His6-tagged wild-type paxillin (mouse paxillin-α) (Q8VI36, form named): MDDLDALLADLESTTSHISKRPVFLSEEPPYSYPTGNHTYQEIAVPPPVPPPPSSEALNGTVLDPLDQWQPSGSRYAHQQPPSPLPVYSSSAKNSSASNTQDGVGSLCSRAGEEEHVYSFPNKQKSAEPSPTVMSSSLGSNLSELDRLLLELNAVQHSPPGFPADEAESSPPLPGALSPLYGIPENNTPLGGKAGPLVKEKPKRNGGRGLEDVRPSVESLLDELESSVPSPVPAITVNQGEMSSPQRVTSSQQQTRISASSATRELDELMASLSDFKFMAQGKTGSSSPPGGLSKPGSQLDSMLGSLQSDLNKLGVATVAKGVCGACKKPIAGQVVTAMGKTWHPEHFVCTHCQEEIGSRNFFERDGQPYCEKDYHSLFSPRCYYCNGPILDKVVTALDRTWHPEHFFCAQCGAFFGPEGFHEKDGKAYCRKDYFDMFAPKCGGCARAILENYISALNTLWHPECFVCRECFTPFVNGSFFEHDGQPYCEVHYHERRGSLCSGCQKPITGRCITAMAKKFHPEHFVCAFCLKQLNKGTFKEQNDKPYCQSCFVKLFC

Biological target: His6-tagged wild-type paxillin (mouse paxillin-α) (mouse) (UniProt Q8VI36)
Test: pull-down; His6-tagged paxillin (WT, S273A, S273D) or His6-tagged DDX42 (WT, D407A) overexpressed in Ba/F3 cells, precipitated from the lysate with Ni-NTA agarose beads; co-precipitated endogenous proteins detected by western blot (anti-DDX42, anti-GIT1, anti-paxillin); mock-transfected and parental cells as controls

binding: binds
B1: ATP-dependent RNA helicase DDX42 (protein, UniProt Q810A7 1-929)
chain: MNWNKGGPGTKRGFGFGGFAISAGKKEEAKLPQQSHSAFGAASSSSGFGKSAPPQLPSFYKIGSKRANFDEENAYFEDEEEDSSNVDLPYIPAENSPTRQQFHSKPADSDSDDDPLEAFMAEVEDQAARDMKRLEEKDKERKNVKGIRDDIEEEDDQEAYFRYMAENPTAGVVQEEEEDNLEYDSDGNPIAPSKKIIDPLPPIDHSEIDYPPFEKNFYNEHEEITNLTPQQLIDLRHKLNLRVSGAAPPRPGSSFAHFGFDEQLMHQIRKSEYTQPTPIQCQGVPVALSGRDMIGIAKTGSGKTAAFIWPMLIHIMDQKELEPGDGPIAVIVCPTRELCQQIHAECKRFGKAYNLRSVAVYGGGSMWEQAKALQEGAEIVVCTPGRLIDHVKKKATNLQRVSYLVFDEADRMFDMGFEYQVRSIASHVRPDRQTLLFSATFRKKIEKLARDILIDPIRVVQGDIGEANEDVTQIVEILHSGPSKWNWLTRRLVEFTSSGSVLLFVTKKANAEELASNLKQEGHNLGLLHGDMDQSERNKVISDFKKKDIPVLVATDVAARGLDIPSIKTVINYDVARDIDTHTHRIGRTGRAGEKGVAYTLLTPKDSNFAGDLVRNLEGANQHVSKELLDLAMQNAWFRKSRFKGGKGKKLNIGGGGLGYRERPGLGSENSDRGNNNNVMSNYEAYKPSTGAMGDRLTAMKAAFQSQYKSHFVAASLSNQKAGTSSAGASGWTSAGSLNSVPTNSAQQGHNSPDNPMTSSTKNIPGFNNSGNISSAPVTYPSIGAQGVNNTASGNNSREGIGGGNGKRERYTENRGGSRHSHGDGGNRHGDGGRHGDGYRYPESGSRHTDGHRHGETRHGGSAGRHGESRGANDGRNGESRKEGFNRENKMDPKVDSSRMDKVDSKTDKTPDGFAVPEPPKRKKSRWDS

binding: binds
B2: ARF GTPase-activating protein GIT1 (protein, UniProt Q68FF6 1-770)
chain: MSRKGPRAEVCADCSAPDPGWASISRGVLVCDECCSVHRSLGRHISIVKHLRHSAWPPTLLQMVHTLASNGANSIWEHSLLDPAQVQSGRRKANPQDKVHPIKSEFIRAKYQMLAFVHKLPCRDDDGVTAKDLSKQLHSSVRTGNLETCLRLLSLGAQANFFHPEKGTTPLHVAAKAGQTLQAELLVVYGADPGSPDVNGRTPIDYARQAGHHELAERLVECQYELTDRLAFYLCGRKPDHKNGHYIIPQMADRSRQKCMSQSLDLSELAKAAKKKLQALSNRLFEELAMDVYDEVDRRENDAVWLATQNHSTLVTERSAVPFLPVNPEYSATRNQGRQKLARFNAREFATLIIDILSEAKRRQQGKSLSSPTDNLELSARSQSELDDQHDYDSVASDEDTDQEPLPSAGATRNNRARSMDSSDLSDGAVTLQEYLELKKALATSEAKVQQLMKVNSSLSDELRRLQREIHKLQAENLQLRQPPGPVPPPSLPSERAEHTLMGPGGSTHRRDRQAFSMYEPGSALKPFGGTPGDELATRLQPFHSTELEDDAIYSVHVPAGLYRIRKGVSASSVPFTPSSPLLSCSQEGSRHASKLSRHGSGADSDYENTQSGDPLLGLEGKRFLELSKEDELHPELESLDGDLDPGLPSTEDVILKTEQVTKNIQELLRAAQEFKHDSFVPCSEKIHLAVTEMASLFPKRPALEPVRSSLRLLNASAYRLQSECRKTVPPEPGAPVDFQLLTQQVIQCAYDIAKAAKQLVTITTREKKQ
